This is one part of the list.
What follows are sequences tested against OsWRKY34 (Oryza sativa, UniProt Q0JBA9 1-250) (assay: protein-binding microarray (RPBM); PBS, 2% BSA, 51.3 ng/ul salmon testes DNA, 50 uM zinc acetate, 200 nM TF, 25 C, 1 h; high values mean tight binding). Conditions: protein: recombinant; tags: N-terminal polyhistidine and DsRed monomer fusion (pET32a); label: CyDye5-dUTP incorporated in the synthesized complementary strand; 3' TTTTT single-stranded linker to array surface; dsDNA, one strand shown.
Procedure, shortened: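 Binding signal is defined as the fluorescence intensity of each feature in arbitrary units, read on an Axon 4000B scanner. Transcription factors with N-terminal polyhistidine and DsRed fusions came from E. coli BL21-CodonPlus and were purified on Ni–NTA. They were incubated at 200 nM for 1 h at 25 °C on a custom Agilent array that had been made double-stranded with Cy5-dUTP, with 50 µM zinc acetate present, and the array was washed.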

The chains behind the UniProt entries cited, without tags or fusion partners.
UniProt Q0JBA9, entry or part of it: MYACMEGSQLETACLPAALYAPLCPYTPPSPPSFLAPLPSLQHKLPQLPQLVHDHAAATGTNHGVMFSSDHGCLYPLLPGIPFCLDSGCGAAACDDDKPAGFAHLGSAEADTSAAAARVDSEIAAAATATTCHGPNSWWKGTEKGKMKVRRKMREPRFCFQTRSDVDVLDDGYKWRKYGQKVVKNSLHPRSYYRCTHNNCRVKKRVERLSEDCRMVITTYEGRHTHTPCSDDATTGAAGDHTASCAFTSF

| Sequence | binding signal |
| --- | --- |
| AATTCTTCTCACATGCATGTCTTCCTGTCTCACGATAGCACGGAGTCACCTAGTGCAG | 10100 fluorescence intensity (a.u.) |
| CTCCTCCGCCGTTTTCTCCTTCTCTAAGCTACCGCCGCCGCGGAGTCACCTAGTGCAG | 13000 fluorescence intensity (a.u.) |
| GCCCGCGTTTTCTCCGGCCACCAACCATGGCCGCCGGCCGCGGAGTCACCTAGTGCAG | 9090 fluorescence intensity (a.u.) |
| TTCTCCTGGTCGTGGACGCGGCGCGGCGTCGGATTCTTCCCGGAGTCACCTAGTGCAG | 8050 fluorescence intensity (a.u.) |
| GGTTGCCGCCACACCAAGGAGGGTTTTTTTCTCGGTCAAACGGAGTCACCTAGTGCAG | 8990 fluorescence intensity (a.u.) |
| TAATTCATCGCCACGTACAAACGGACATCTGCTTTCTGAACGGAGTCACCTAGTGCAG | 9360 fluorescence intensity (a.u.) |
| GCTAACTCCGTGTGACCATGTTGCCTACGATTTCCCTGAACGGAGTCACCTAGTGCAG | 9660 fluorescence intensity (a.u.) |
| CTTAAACCGCAATAACATATATAGCGTGTCCTTTAACTTGCGGAGTCACCTAGTGCAG | 8570 fluorescence intensity (a.u.) |
| TTATAATTTACCGTTTTTAATAATTTGTACTGGCATATCACGGAGTCACCTAGTGCAG | 8040 fluorescence intensity (a.u.) |
| GCCAAGTCTCATTTTTGTCATGTATGGTGTTTACTGATTACGGAGTCACCTAGTGCAG | 12400 fluorescence intensity (a.u.) |
| CACTCCGCTACCCCACCTCTCCGGAAGCTTTCATTCGCGACGGAGTCACCTAGTGCAG | 8192 fluorescence intensity (a.u.) |
| GTTCATACGAATTTCTTCATCACCACCTTCACAAATCCCTCGGAGTCACCTAGTGCAG | 8030 fluorescence intensity (a.u.) |
| CATGATTTGACAATGGGTGGGTTCGGATGAGATTGCCGTGCGGAGTCACCTAGTGCAG | 8860 fluorescence intensity (a.u.) |
| GGCGGCTCATCATCGGCTTTCATCGCCTCGCCTCTTCGTTCGGAGTCACCTAGTGCAG | 15100 fluorescence intensity (a.u.) |
| TTTCTCTGGCCTAGTTTGTTTATTTATCTTTTATCCCCTTCGGAGTCACCTAGTGCAG | 8240 fluorescence intensity (a.u.) |
| TGCTACTTTGACTAGAAATATTTATAAATGTAGTATATTTCGGAGTCACCTAGTGCAG | 8570 fluorescence intensity (a.u.) |
| GCAGCTCCTATCTGGCCAGCTTTTATTTAGCTGTTCTTCTCGGAGTCACCTAGTGCAG | 9040 fluorescence intensity (a.u.) |
| AATTTTTTTTGGGGTTGCTGCTGTTTTTTTTGTGGAGGTTCGGAGTCACCTAGTGCAG | 9450 fluorescence intensity (a.u.) |
| TGTTGCATTTTTACTCGTTGGCCGGCACGACTGCCTCTGACGGAGTCACCTAGTGCAG | 9740 fluorescence intensity (a.u.) |
| TTGTCTCACCACTGCTTCGCATCCTCCGCCGCCGCCTCACCGGAGTCACCTAGTGCAG | 11000 fluorescence intensity (a.u.) |
| CATGCTGCCAACTCTGCAATTCTGATGTCCATTGCCAATCCGGAGTCACCTAGTGCAG | 9870 fluorescence intensity (a.u.) |
| TCGACCTGTCGCTCATCGACGGGTTCAACGTGCCGGTGAGCGGAGTCACCTAGTGCAG | 12400 fluorescence intensity (a.u.) |
| ATGGGGAAATTTTGCAGCTCTTGCTCTTTGTGCCGTAGCTCGGAGTCACCTAGTGCAG | 8100 fluorescence intensity (a.u.) |

Reprinted at random: 2 records from the list

| Sequence | binding signal |
| --- | --- |
| CATGATTTGACAATGGGTGGGTTCGGATGAGATTGCCGTGCGGAGTCACCTAGTGCAG | 8860 fluorescence intensity (a.u.) |
| TTCTCCTGGTCGTGGACGCGGCGCGGCGTCGGATTCTTCCCGGAGTCACCTAGTGCAG | 8050 fluorescence intensity (a.u.) |

— article PMC7819943, “Rice protein-binding microarrays: a tool to detect cis-acting elements near promoter regions in rice”
